In ChEMBL document CHEMBL1687827, “Profiling the Aspergillus fumigatus proteome in response to caspofungin” (2011):
The source gives many values for each of these; only a part stands here.

Assays:
Type in all cases: functional
Aspergillus fumigatus [1] = experiment: Induction of change in cell wall glucanase, putative gene expression in drug-susceptible Aspergillus fumigatus KU80 delta-akuB at 0.12 ug/ml after 48 hrs in YPD medium by microarray analysis relative to control
Aspergillus fumigatus [2] = experiment: Induction of change in major allergen and cytotoxin AspF1 protein level in iTRAQ114 labelled secreted fraction of drug-resistant Aspergillus fumigatus EMFR-S678P at 0.12 ug/ml after 24 hrs in YPD medium by MS (MS/MS) analysis relative to control
Aspergillus fumigatus [3] = experiment: Induction of change in ATP synthase proteolipid P2, putative gene expression in drug-susceptible Aspergillus fumigatus KU80 delta-akuB at 0.12 ug/ml after 48 hrs in YPD medium by microarray analysis relative to control
Aspergillus fumigatus [4] = experiment: Induction of change in ribosomal protein S15, putative gene expression in drug-susceptible Aspergillus fumigatus KU80 delta-akuB at 0.12 ug/ml after 24 hrs in YPD medium by microarray analysis relative to control
Aspergillus fumigatus [5] = experiment: Induction of change in hypothetical gene locus AFUA_3G02730 expression in drug-susceptible Aspergillus fumigatus KU80 delta-akuB at 0.12 ug/ml after 48 hrs in YPD medium by microarray analysis relative to control
Aspergillus fumigatus [6] = experiment: Induction of change in conserved hypothetical gene locus AFUA_5G07590 expression in drug-susceptible Aspergillus fumigatus KU80 delta-akuB at 0.12 ug/ml after 48 hrs in YPD medium by microarray analysis relative to control
Aspergillus fumigatus [7] = experiment: Induction of change in ribosomal protein S8 protein level in iTRAQ114 labelled cell wall fraction of drug-susceptible Aspergillus fumigatus KU80 delta-akuB at 0.12 ug/ml after 24 hrs in YPD medium by MS (MS/MS) analysis relative to control
Aspergillus fumigatus [8] = experiment: Induction of change in Ribosomal protein S5 protein level in iTRAQ114 labelled cell wall fraction of drug-susceptible Aspergillus fumigatus KU80 delta-akuB at 0.12 ug/ml after 24 hrs in YPD medium by MS (MS/MS) analysis relative to control
Aspergillus fumigatus [9] = experiment: Induction of change in ribosomal protein L34 protein, putative protein level in iTRAQ-118 labelled cell wall fraction of drug-resistant Aspergillus fumigatus EMFR-S678P at 0.12 ug/ml after 24 hrs in YPD medium by MS (MS/MS) analysis relative to control
Aspergillus fumigatus [10] = experiment: Induction of change in Ribosomal L38e protein family gene expression in drug-susceptible Aspergillus fumigatus KU80 delta-akuB at 0.12 ug/ml after 24 hrs in YPD medium by microarray analysis relative to control
Aspergillus fumigatus [11] = experiment: Induction of change in CFEM domain protein, putative gene expression in drug-susceptible Aspergillus fumigatus KU80 delta-akuB at 0.12 ug/ml after 24 hrs in YPD medium by microarray analysis relative to control
Aspergillus fumigatus [12] = experiment: Induction of change in cytochrome c oxidase polypeptide vib protein level in iTRAQ-118 labelled cell wall fraction of drug-susceptible Aspergillus fumigatus KU80 delta-akuB at 0.12 ug/ml after 24 hrs in YPD medium by MS (MS/MS) analysis relative to control
Aspergillus fumigatus [13] = experiment: Induction of change in 40S ribosomal protein S6 protein level in iTRAQ114 labelled cell wall fraction of drug-resistant Aspergillus fumigatus EMFR-S678P at 0.12 ug/ml after 24 hrs in YPD medium by MS (MS/MS) analysis relative to control
Aspergillus fumigatus [14] = experiment: Induction of change in C2H2 transcription factor (Seb1), putative, putative gene expression in drug-susceptible Aspergillus fumigatus KU80 delta-akuB at 0.12 ug/ml after 24 hrs in YPD medium by microarray analysis relative to control
Aspergillus fumigatus [15] = experiment: Induction of change in conserved hypothetical locus AFUA_2G15580 gene expression in drug-susceptible Aspergillus fumigatus KU80 delta-akuB at 0.12 ug/ml after 24 hrs in YPD medium by microarray analysis relative to control
Aspergillus fumigatus [16] = experiment: Induction of change in ribosomal protein L16a protein level in iTRAQ114 labelled secreted fraction of drug-susceptible Aspergillus fumigatus KU80 delta-akuB at 0.12 ug/ml after 24 hrs in YPD medium by MS (MS/MS) analysis relative to control
Aspergillus fumigatus [17] = experiment: Induction of change in 14-alpha sterol demethylase Cyp51A protein level in iTRAQ121 labelled cell wall fraction of drug-susceptible Aspergillus fumigatus KU80 delta-akuB at 0.12 ug/ml after 48 hrs in YPD medium by MS (MS/MS) analysis relative to control
Aspergillus fumigatus [18] = experiment: Induction of change in citrate synthase, eukaryotic gene expression in drug-susceptible Aspergillus fumigatus KU80 delta-akuB at 0.12 ug/ml after 48 hrs in YPD medium by microarray analysis relative to control
Aspergillus fumigatus [19] = experiment: Induction of change in C2H2 transcription factor (Rpn4), putative gene expression in drug-susceptible Aspergillus fumigatus KU80 delta-akuB at 0.12 ug/ml after 24 hrs in YPD medium by microarray analysis relative to control
Aspergillus fumigatus [20] = experiment: Induction of change in Ribosomal protein S13p/S18e protein level in iTRAQ114 labelled cell wall fraction of drug-resistant Aspergillus fumigatus EMFR-S678P at 0.12 ug/ml after 24 hrs in YPD medium by MS (MS/MS) analysis relative to control
Aspergillus fumigatus [21] = experiment: Induction of change in cell wall protein, putative protein level in iTRAQ-118 labelled cell wall fraction of drug-susceptible Aspergillus fumigatus KU80 delta-akuB at 0.12 ug/ml after 24 hrs in YPD medium by MS (MS/MS) analysis relative to control
Aspergillus fumigatus [22] = experiment: Induction of change in IgE-binding protein level in iTRAQ-116 labelled cell wall fraction of drug-susceptible Aspergillus fumigatus KU80 delta-akuB at 0.12 ug/ml after 48 hrs in YPD medium by MS (MS/MS) analysis relative to control
Aspergillus fumigatus [23] = experiment: Induction of change in conserved hypothetical gene expression in drug-susceptible Aspergillus fumigatus KU80 delta-akuB at 0.12 ug/ml after 48 hrs in YPD medium by microarray analysis relative to control
Aspergillus fumigatus [24] = experiment: Induction of change in Eukaryotic translation initiation factor eIF-5A protein level in iTRAQ-118 labelled cell wall fraction of drug-susceptible Aspergillus fumigatus KU80 delta-akuB at 0.12 ug/ml after 24 hrs in YPD medium by MS (MS/MS) analysis relative to control
Aspergillus fumigatus [25] = experiment: Induction of change in Ribosomal L18ae protein family protein level in iTRAQ114 labelled cell wall fraction of drug-susceptible Aspergillus fumigatus KU80 delta-akuB at 0.12 ug/ml after 24 hrs in YPD medium by MS (MS/MS) analysis relative to control
Aspergillus fumigatus [26] = experiment: Induction of change in ATP citrate lyase subunit (Acl), putative protein level in iTRAQ114 labelled secreted fraction of drug-resistant Aspergillus fumigatus EMFR-S678P at 0.12 ug/ml after 24 hrs in YPD medium by MS (MS/MS) analysis relative to control

In the case of `CC[C@H](C)C[C@H](C)CCCCCCCCC(=O)N[C@H]1C[C@@H](O)[C@@H](NCCN)NC(=O)[C@@H]2[C@@H](O)CCN2C(=O)[C@H]([C@H](O)CCN)NC(=O)[C@H]([C@H](O)[C@@H](O)c2ccc(O)cc2)NC(=O)[C@@H]2C[C@@H](O)CN2C(=O)[C@H]([C@@H](C)O)NC1=O` [CASPOFUNGIN], the “fold change (FC)” value (Aspergillus fumigatus [1]) is reported as -2.7, the “fold change (FC)” value (Aspergillus fumigatus [2]) is reported as 1.23 and the “fold change (FC)” value (Aspergillus fumigatus [3]) is reported as -2.3. For the same molecule, the “fold change (FC)” value (Aspergillus fumigatus [4]) was 3.9, the “fold change (FC)” value (Aspergillus fumigatus [5]) was 3.7 and the “fold change (FC)” value (Aspergillus fumigatus [6]) was -2.7. For the same molecule, the “fold change (FC)” value (Aspergillus fumigatus [7]) was 1.2, the “fold change (FC)” value (Aspergillus fumigatus [8]) was 2.3 and the “fold change (FC)” value (Aspergillus fumigatus [9]) was 1.15. For the same molecule, the “fold change (FC)” value (Aspergillus fumigatus [10]) was 4.2, the “fold change (FC)” value (Aspergillus fumigatus [11]) was -6.5 and the “fold change (FC)” value (Aspergillus fumigatus [12]) was -4.9. For the same molecule, the “fold change (FC)” value (Aspergillus fumigatus [13]) was -1.07, the “fold change (FC)” value (Aspergillus fumigatus [14]) was -3.9 and the “fold change (FC)” value (Aspergillus fumigatus [15]) was -6.8. The “fold change (FC)” value (Aspergillus fumigatus [16]) was 1.2, the “fold change (FC)” value (Aspergillus fumigatus [17]) was -2.1 and the “fold change (FC)” value (Aspergillus fumigatus [18]) was -3.4. For the same molecule, the “fold change (FC)” value (Aspergillus fumigatus [19]) was -5, the “fold change (FC)” value (Aspergillus fumigatus [20]) was -1.23 and the “fold change (FC)” value (Aspergillus fumigatus [21]) was -2.5. For the same molecule, the “fold change (FC)” value (Aspergillus fumigatus [22]) was 1.1, the “fold change (FC)” value (Aspergillus fumigatus [23]) was 3.9 and the “fold change (FC)” value (Aspergillus fumigatus [24]) was -2. The “fold change (FC)” value (Aspergillus fumigatus [25]) was 2.3 and the “fold change (FC)” value (Aspergillus fumigatus [26]) was -1.15.
